Data as given in PubChem BioAssay AID1259327 (Drosophila RNAi Screening Center, 2017).

- Test: 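Knock-downs altering cellular ATP with no metal added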
- Cells: Drosophila S2R+ cells
- Reagents: long dsRNA against Drosophila genes
- Time to read-out: 5 days (water added on day 4, read one day later)
- Challenge: water added as vehicle, no metal, one day before read-out
- Measured: 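Total ATP measured by luciferase light, scaled to plate mean, duplicates averaged, then z-scored across plates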
- Direction: ATP z-score: higher = more total ATP than typical wells; ATP luminescence: higher = more total ATP
- Active means: 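Called active when the ATP z-score exceeds 1.5 or falls below -1.5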
- Meaning of the calls: active = hit: ATP up or down; inactive = no clear ATP change
The whole screen tested about 3,100 reagents; below is a random part of them. 378 of them (12%) were called active. 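Hits include both directions; z-score sign shows ATP rise or fall; raw luminescence values are not plate-normalised.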 A plus sign joins genes that one reagent is predicted to hit. Not stated in the record: the amount of reagent.

Sdr [DRSC15517] scored ATP z-score, duplicate mean 0.34; ATP luminescence, replicate 1 (RLU) = 7.99e5; ATP luminescence, replicate 2 (RLU) = 6.84e5; inactive.
After knock-down of Sdr [DRSC36929], the record shows ATP z-score, duplicate mean -0.0219; ATP luminescence, replicate 1 (RLU) = 5.61e5; ATP luminescence, replicate 2 (RLU) = 5.94e5; inactive.
Against Sdr [DRSC36930], the entry reads ATP z-score, duplicate mean -0.233; ATP luminescence, replicate 1 (RLU) = 5.53e5; ATP luminescence, replicate 2 (RLU) = 5.67e5; inactive.
Sfxn2 [DRSC10718] showed ATP z-score, duplicate mean 0.796; ATP luminescence, replicate 1 (RLU) = 1.15e6; ATP luminescence, replicate 2 (RLU) = 8.60e5; inactive.
Knock-down of Sfxn2 [DRSC39646] gave: ATP z-score, duplicate mean -1.16; ATP luminescence, replicate 1 (RLU) = 4.06e5; ATP luminescence, replicate 2 (RLU) = 3.65e5; inactive.
Tret1-1 [DRSC07046] gave ATP z-score, duplicate mean 0.452; ATP luminescence, replicate 1 (RLU) = 6.55e5; ATP luminescence, replicate 2 (RLU) = 6.66e5; inactive.
Tret1-1 [DRSC25701] gave ATP z-score, duplicate mean -0.297; ATP luminescence, replicate 1 (RLU) = 8.27e5; ATP luminescence, replicate 2 (RLU) = 7.51e5; inactive.
CG9416 [DRSC07339] scored ATP z-score, duplicate mean 2.11; ATP luminescence, replicate 1 (RLU) = 8.46e5; ATP luminescence, replicate 2 (RLU) = 7.75e5; active.
CG14439 [DRSC17931] showed ATP z-score, duplicate mean 0.218; ATP luminescence, replicate 1 (RLU) = 5.99e5; ATP luminescence, replicate 2 (RLU) = 6.92e5; inactive.
With knock-down of CG14439 [DRSC39551], the screen gave ATP z-score, duplicate mean 0.623; ATP luminescence, replicate 1 (RLU) = 4.69e5; ATP luminescence, replicate 2 (RLU) = 5.48e5; inactive.
Cpes [DRSC27503] scored ATP z-score, duplicate mean 0.99; ATP luminescence, replicate 1 (RLU) = 9.92e5; ATP luminescence, replicate 2 (RLU) = 1.11e6; inactive.
After knock-down of CG13784 [DRSC00974], the screen gave ATP z-score, duplicate mean -1.04; ATP luminescence, replicate 1 (RLU) = 6.29e5; ATP luminescence, replicate 2 (RLU) = 6.29e5; inactive.
For GluClalpha [DRSC16680], the values are ATP z-score, duplicate mean -0.921; ATP luminescence, replicate 1 (RLU) = 2.51e5; ATP luminescence, replicate 2 (RLU) = 6.79e5; inactive.
PIG-B [DRSC22598] showed ATP z-score, duplicate mean 1.27; ATP luminescence, replicate 1 (RLU) = 7.21e5; ATP luminescence, replicate 2 (RLU) = 6.53e5; inactive.
After knock-down of PIG-B [DRSC39659], the record shows ATP z-score, duplicate mean 1.14; ATP luminescence, replicate 1 (RLU) = 4.98e5; ATP luminescence, replicate 2 (RLU) = 5.88e5; inactive.
CG34135 + CG11768 [DRSC12702] showed ATP z-score, duplicate mean 0.0179; ATP luminescence, replicate 1 (RLU) = 6.12e5; ATP luminescence, replicate 2 (RLU) = 7.32e5; inactive.
Knock-down of CG34135 + CG11768 [DRSC38826] resulted in: ATP z-score, duplicate mean 0.363; ATP luminescence, replicate 1 (RLU) = 5.23e5; ATP luminescence, replicate 2 (RLU) = 7.00e5; inactive.

4 successive entries from above, for reference:
Sdr [DRSC36929] | ATP z-score, duplicate mean: -0.0219; ATP luminescence, replicate 1 (RLU): 5.61e5; ATP luminescence, replicate 2 (RLU): 5.94e5; Call: inactive
Sdr [DRSC36930] | ATP z-score, duplicate mean: -0.233; ATP luminescence, replicate 1 (RLU): 5.53e5; ATP luminescence, replicate 2 (RLU): 5.67e5; Call: inactive
Sfxn2 [DRSC10718] | ATP z-score, duplicate mean: 0.796; ATP luminescence, replicate 1 (RLU): 1.15e6; ATP luminescence, replicate 2 (RLU): 8.60e5; Call: inactive
Sfxn2 [DRSC39646] | ATP z-score, duplicate mean: -1.16; ATP luminescence, replicate 1 (RLU): 4.06e5; ATP luminescence, replicate 2 (RLU): 3.65e5; Call: inactive

Further entries follow.
After knock-down of Osi20 [DRSC12568], the screen gave ATP z-score, duplicate mean -0.688; ATP luminescence, replicate 1 (RLU) = 8.34e5; ATP luminescence, replicate 2 (RLU) = 7.78e5; inactive.
Silencing of Osi20 [DRSC28630] resulted in: ATP z-score, duplicate mean -0.487; ATP luminescence, replicate 1 (RLU) = 7.98e5; ATP luminescence, replicate 2 (RLU) = 7.33e5; inactive.
Knock-down of SdhD [DRSC14215] came out at: ATP z-score, duplicate mean -0.702; ATP luminescence, replicate 1 (RLU) = 2.60e5; ATP luminescence, replicate 2 (RLU) = 7.06e5; inactive.
For SdhD [DRSC39808], the values are ATP z-score, duplicate mean 0.0993; ATP luminescence, replicate 1 (RLU) = 4.59e5; ATP luminescence, replicate 2 (RLU) = 5.14e5; inactive.
For CG1317 [DRSC08305], the values are ATP z-score, duplicate mean -1.17; ATP luminescence, replicate 1 (RLU) = 5.39e5; ATP luminescence, replicate 2 (RLU) = 6.75e5; inactive.
Knock-down of CG1317 [DRSC39565] resulted in: ATP z-score, duplicate mean -0.372; ATP luminescence, replicate 1 (RLU) = 3.87e5; ATP luminescence, replicate 2 (RLU) = 4.95e5; inactive.
Remo [DRSC19710] gave ATP z-score, duplicate mean 0.944; ATP luminescence, replicate 1 (RLU) = 7.54e5; ATP luminescence, replicate 2 (RLU) = 7.58e5; inactive.
Silencing of CG4332 [DRSC19890] gave: ATP z-score, duplicate mean -0.603; ATP luminescence, replicate 1 (RLU) = 6.19e5; ATP luminescence, replicate 2 (RLU) = 6.67e5; inactive.
Against CG4332 [DRSC39702], the entry reads ATP z-score, duplicate mean 0.346; ATP luminescence, replicate 1 (RLU) = 4.94e5; ATP luminescence, replicate 2 (RLU) = 4.83e5; inactive.
Depletion of Ptp10D [DRSC20272] gave: ATP z-score, duplicate mean 0.214; ATP luminescence, replicate 1 (RLU) = 6.20e5; ATP luminescence, replicate 2 (RLU) = 7.38e5; inactive.
With knock-down of Ptp10D [DRSC36634], the record shows ATP z-score, duplicate mean -0.603; ATP luminescence, replicate 1 (RLU) = 5.23e5; ATP luminescence, replicate 2 (RLU) = 5.34e5; inactive.
Against Ptp10D [DRSC36635], the entry reads ATP z-score, duplicate mean 1.4; ATP luminescence, replicate 1 (RLU) = 8.47e5; ATP luminescence, replicate 2 (RLU) = 5.46e5; inactive.
For ninaE [DRSC17014], the entry reads ATP z-score, duplicate mean 0.0361; ATP luminescence, replicate 1 (RLU) = 3.25e5; ATP luminescence, replicate 2 (RLU) = 7.04e5; inactive.
Silencing of ninaE [DRSC25724] came out at: ATP z-score, duplicate mean 0.491; ATP luminescence, replicate 1 (RLU) = 8.77e5; ATP luminescence, replicate 2 (RLU) = 9.46e5; inactive.
